Measured values as given in publication PMC11041014.
No constants are given. Whether binding was seen depends on the method and setting. In cells and extracts the contact can be indirect. Some binding calls cover weakened binding; strength is not graded here. For some assays here: Sequences can lack the tags named with a protein.

Tests used:
Flag-OTUD5 = molecular target: T1, Flag-OTUD5 (UniProt Q96G74); experiment: co-IP; HEK293T cells with the flag-tagged OTUD5 plasmid; precipitated with a FLAG-tag antibody, SLC38A1 detected by Western blotting
T1 sequence: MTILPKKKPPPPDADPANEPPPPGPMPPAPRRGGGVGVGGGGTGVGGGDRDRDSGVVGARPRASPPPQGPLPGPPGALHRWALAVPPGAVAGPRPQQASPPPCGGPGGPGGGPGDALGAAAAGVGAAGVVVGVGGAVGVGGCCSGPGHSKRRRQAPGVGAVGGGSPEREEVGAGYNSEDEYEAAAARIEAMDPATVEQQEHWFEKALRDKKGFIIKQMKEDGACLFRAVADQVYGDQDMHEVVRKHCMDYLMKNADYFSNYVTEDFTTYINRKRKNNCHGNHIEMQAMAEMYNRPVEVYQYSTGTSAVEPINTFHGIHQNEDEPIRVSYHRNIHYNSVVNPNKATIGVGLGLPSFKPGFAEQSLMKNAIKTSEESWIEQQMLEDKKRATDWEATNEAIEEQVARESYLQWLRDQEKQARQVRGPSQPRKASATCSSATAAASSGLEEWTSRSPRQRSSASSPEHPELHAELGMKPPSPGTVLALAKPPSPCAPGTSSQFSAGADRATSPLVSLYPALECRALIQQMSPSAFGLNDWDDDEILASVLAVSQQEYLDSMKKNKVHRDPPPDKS

[1] = molecular target: T2, OTU deubiquitinase 5 (OTUD5), endogenous (human (endogenous in HCCLM3)) (UniProt Q96G74); experiment: co-IP; endogenous proteins in HCCLM3 lysate (IP lysis buffer); antibody on Dynabeads Protein G, overnight at 4 °C; anti-OTUD5 IP with anti-SLC38A1 blot and anti-SLC38A1 IP with anti-OTUD5 blot described in the methods
T2 sequence: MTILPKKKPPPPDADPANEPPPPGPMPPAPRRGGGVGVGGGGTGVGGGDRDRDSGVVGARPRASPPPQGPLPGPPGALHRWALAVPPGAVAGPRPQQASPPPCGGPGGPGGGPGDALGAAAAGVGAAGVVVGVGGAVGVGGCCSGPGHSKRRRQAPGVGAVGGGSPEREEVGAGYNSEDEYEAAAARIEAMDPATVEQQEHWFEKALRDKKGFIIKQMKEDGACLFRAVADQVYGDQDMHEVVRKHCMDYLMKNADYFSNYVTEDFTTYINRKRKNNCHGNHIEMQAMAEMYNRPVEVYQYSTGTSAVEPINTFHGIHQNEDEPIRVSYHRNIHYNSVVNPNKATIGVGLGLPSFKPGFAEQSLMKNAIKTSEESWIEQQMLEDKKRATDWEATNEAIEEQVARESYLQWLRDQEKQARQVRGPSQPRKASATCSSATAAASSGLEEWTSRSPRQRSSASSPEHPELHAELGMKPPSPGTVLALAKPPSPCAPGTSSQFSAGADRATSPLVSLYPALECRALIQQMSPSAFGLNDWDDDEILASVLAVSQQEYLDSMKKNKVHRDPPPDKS

binding (Flag-OTUD5): binds
binding [1]: binds
B1: solute carrier family 38 member 1 (SLC38A1) (protein, UniProt Q9H2H9 1-487)
chain: MMHFKSGLELTELQNMTVPEDDNISNDSNDFTEVENGQINSKFISDRESRRSLTNSHLEKKKCDEYIPGTTSLGMSVFNLSNAIMGSGILGLAFALANTGILLFLVLLTSVTLLSIYSINLLLICSKETGCMVYEKLGEQVFGTTGKFVIFGATSLQNTGAMLSYLFIVKNELPSAIKFLMGKEETFSAWYVDGRVLVVIVTFGIILPLCLLKNLGYLGYTSGFSLSCMVFFLIVVIYKKFQIPCIVPELNSTISANSTNADTCTPKYVTFNSKTVYALPTIAFAFVCHPSVLPIYSELKDRSQKKMQMVSNISFFAMFVMYFLTAIFGYLTFYDNVQSDLLHKYQSKDDILILTVRLAVIVAVILTVPVLFFTVRSSLFELAKKTKFNLCRHTVVTCILLVVINLLVIFIPSMKDIFGVVGVTSANMLIFILPSSLYLKITDQDGDKGTQRIWAALFLGLGVLFSLVSIPLVIYDWACSSSSDEGH
